# Measured values: patent US20040081637A1
# Protein sequences, listed by entry. Tags and fused reporters are not part of them. Residues count along the entry.
# UniProt P78310, residues 20-365: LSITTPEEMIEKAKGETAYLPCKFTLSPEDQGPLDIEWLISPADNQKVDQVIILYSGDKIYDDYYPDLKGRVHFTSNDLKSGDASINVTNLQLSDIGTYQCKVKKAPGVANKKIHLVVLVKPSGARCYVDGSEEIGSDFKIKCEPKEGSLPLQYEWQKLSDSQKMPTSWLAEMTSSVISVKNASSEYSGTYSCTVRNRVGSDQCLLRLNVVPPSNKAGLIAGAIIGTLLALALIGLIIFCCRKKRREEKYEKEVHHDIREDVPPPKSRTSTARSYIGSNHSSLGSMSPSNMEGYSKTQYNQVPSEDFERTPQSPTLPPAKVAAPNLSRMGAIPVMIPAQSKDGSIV
# No constants are given. Whether binding was seen depends on the method and setting. Some entries that bind do so weakly or less than the wild type.
# Target: coxsackieadenovirus receptor (CAR) on 911 cells (UniProt P78310)
# Experiment: FACS blocking assay on 911 cells expressing CAR
binder,measurement,value
recombinant adenovirus type 5 fiber-knob protein (protein) TGAITVGNKNNDKLTLWTTPAPSPNCRLNAEKDAKLTLVLTKCGSQILATVSVLAVKGSLAPISGTVQSAHLIIRFDENGVLLNNSFLDPEYWNFRNGDLTEGTAYTNAVGFMPNLSAYPKSHGKTAKSNIVSQVYLNGDKTKPVTLTITLNGTQETGDTTPSAYSMSFSWDWSGHNYINEIFATSSYTFSYIAQE,binding,binds
